Results: PubChem BioAssay AID504467 (National Center for Advancing Translational Sciences (NCATS), 2011)
In all, about 330,000 compounds went through this assay and about 7,700 (2.3%) were called active. The shares of active, inactive and inconclusive entries below differ from those in the screen. Calls come from the whole dose curve; as a rule, active = well fitted inhibition curve with a large enough effect; inconclusive = small, poorly fitted or top-dose-only effect, or effect the other way; inactive = flat fitted curve, though single readings scatter. Potencies beside an inconclusive call are fits to weak or partial responses and may not hold up.

experiment: qHTS screen for small molecules that inhibit ELG1-dependent DNA repair in human embryonic kidney (HEK293T) cells expressing luciferase-tagged ELG1; details: HEK293T ELG1-luciferase reporter, luminescence, 16 h, DNA damage induced by 5-fluorouridine; series mostly up to 46.1 µM; note: nearly all actives have a fitted effect of over 55% in size
Outline: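 Reporter activity after DNA damage by 5-fluorouridine is monitored. Compound-treated cells incubate 16 hr at 37 °C, then ONE-Glo is added for 30 min before luminescence reading.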
Potency is the fitted concentration of half-maximal effect.

SMILES | Potency
Cc1cc(C(=O)N/N=C\c2ccc(COc3ccc([N+](=O)[O-])cc3)o2)ccc1[N+](=O)[O-] | inactive
Cc1ccc(CNC(=O)CCn2ccc3cc(S(=O)(=O)N4CCCC4)ccc32)cc1 | inactive
COc1ccccc1/C=C/C=C1\Oc2c(ccc(O)c2CN2CCN(CCO)CC2)C1=O | inactive
CCOc1ccc(S(=O)(=O)N2CCN(C(=O)CCOc3ccccc3C)CC2)cc1 | inconclusive: 29.1 µM [inhibitor, single point]
CNC(=S)N/N=C(\C)c1ccc(N2CCOCC2)cc1 | inconclusive: 18.4 µM [activator, partial curve]
O=C(OCc1nc2ccccc2s1)[C@@H]1CCCN1S(=O)(=O)c1ccccc1F | inconclusive: 1.64 µM [activator, single point]
CCCc1cc(=O)n2[nH]c(-c3ccccc3)cc2n1 | inconclusive: 13 µM [activator, partial curve]
CC(C)CC(NC(=O)C1CCC(=O)N1)C(=O)NC(CC(C)C)C(=O)N1CCCC1C(N)=O (stereo unspecified) | inactive
Cc1nn(-c2ccc(C(=O)O)cc2)c(N)c1-c1ccccc1 | inconclusive: 0.731 µM [activator, full curve]
N#C/C(=C\c1cccs1)C(=O)NCc1ccccc1 | inactive
Cc1ccc(C)c(OCC(=O)N2CCc3ccccc3C2)c1 | inconclusive: 16.4 µM [activator, partial curve, poor fit]
COc1ccc(CN(C)c2ncnc(N)n2)cc1 | inconclusive: 20.6 µM [activator, single point]
NC(=O)c1cnn(-c2ccc3ccccc3c2)c1N | inconclusive: 16.4 µM [activator, partial curve]
CCOC(=O)c1cnc2c(C)cc(C)cc2c1NCCCN1CCOCC1 | inconclusive: 18.3 µM [inhibitor, single point]
CC1CCCCC1NC(=O)COC(=O)c1cccn1C (stereo unspecified) | inconclusive: 18.3 µM [activator, partial curve, poor fit]
COCc1nnc(NC(=O)c2ccc(S(=O)(=O)N(CC(C)C)CC(C)C)cc2)o1 | inconclusive: 14.6 µM [inhibitor, partial curve]
CCOc1ccc(N)c(SSc2cc(OCC)ccc2N)c1 | inconclusive: 6.51 µM [activator, single point]
COc1ccc(-c2cc(-c3ccccc3)nc(-c3ccc4c(c3)NC(=O)CO4)c2)cc1 | active: 23.1 µM
COc1ccc(Nc2nc3c([nH]2)c(=O)[nH]c(=O)n3C)cc1 | inactive
COCCOc1ccc(C(F)(F)F)cc1Nc1nc2ccccc2o1 | inconclusive: 29.1 µM [activator, single point]
COCCCNc1ncnc2c1sc1nc(-c3ccco3)c3c(c12)CC(C)(C)OC3 | inconclusive: 16.4 µM [inhibitor, partial curve]
COc1ccc(C(=O)N2CCCC(C(=O)O)C2)c2ccccc12 (stereo unspecified) | inactive
CCN(CC)S(=O)(=O)c1cc(C(=O)Nc2ccccc2C(=O)O)ccc1OC | inconclusive: 18.4 µM [activator, partial curve]
CN(CC(=O)NCc1ccc2c(c1)OCO2)S(=O)(=O)c1ccc(Br)s1 | inactive

21 of the compounds above, tab-delimited:
SMILES	Potency
COc1ccccc1/C=C/C=C1\Oc2c(ccc(O)c2CN2CCN(CCO)CC2)C1=O	inactive
CCOc1ccc(S(=O)(=O)N2CCN(C(=O)CCOc3ccccc3C)CC2)cc1	inconclusive: 29.1 µM [inhibitor, single point]
CNC(=S)N/N=C(\C)c1ccc(N2CCOCC2)cc1	inconclusive: 18.4 µM [activator, partial curve]
O=C(OCc1nc2ccccc2s1)[C@@H]1CCCN1S(=O)(=O)c1ccccc1F	inconclusive: 1.64 µM [activator, single point]
CCCc1cc(=O)n2[nH]c(-c3ccccc3)cc2n1	inconclusive: 13 µM [activator, partial curve]
CC(C)CC(NC(=O)C1CCC(=O)N1)C(=O)NC(CC(C)C)C(=O)N1CCCC1C(N)=O (stereo unspecified)	inactive
Cc1nn(-c2ccc(C(=O)O)cc2)c(N)c1-c1ccccc1	inconclusive: 0.731 µM [activator, full curve]
N#C/C(=C\c1cccs1)C(=O)NCc1ccccc1	inactive
Cc1ccc(C)c(OCC(=O)N2CCc3ccccc3C2)c1	inconclusive: 16.4 µM [activator, partial curve, poor fit]
COc1ccc(CN(C)c2ncnc(N)n2)cc1	inconclusive: 20.6 µM [activator, single point]
NC(=O)c1cnn(-c2ccc3ccccc3c2)c1N	inconclusive: 16.4 µM [activator, partial curve]
CCOC(=O)c1cnc2c(C)cc(C)cc2c1NCCCN1CCOCC1	inconclusive: 18.3 µM [inhibitor, single point]
CC1CCCCC1NC(=O)COC(=O)c1cccn1C (stereo unspecified)	inconclusive: 18.3 µM [activator, partial curve, poor fit]
COCc1nnc(NC(=O)c2ccc(S(=O)(=O)N(CC(C)C)CC(C)C)cc2)o1	inconclusive: 14.6 µM [inhibitor, partial curve]
CCOc1ccc(N)c(SSc2cc(OCC)ccc2N)c1	inconclusive: 6.51 µM [activator, single point]
COc1ccc(-c2cc(-c3ccccc3)nc(-c3ccc4c(c3)NC(=O)CO4)c2)cc1	active: 23.1 µM
COc1ccc(Nc2nc3c([nH]2)c(=O)[nH]c(=O)n3C)cc1	inactive
COCCOc1ccc(C(F)(F)F)cc1Nc1nc2ccccc2o1	inconclusive: 29.1 µM [activator, single point]
COCCCNc1ncnc2c1sc1nc(-c3ccco3)c3c(c12)CC(C)(C)OC3	inconclusive: 16.4 µM [inhibitor, partial curve]
COc1ccc(C(=O)N2CCCC(C(=O)O)C2)c2ccccc12 (stereo unspecified)	inactive
CCN(CC)S(=O)(=O)c1cc(C(=O)Nc2ccccc2C(=O)O)ccc1OC	inconclusive: 18.4 µM [activator, partial curve]

Continuation.

SMILES | Potency
O=C(c1ccccc1)c1ccc2c(c1)OCCOCCOCCOCCO2 | inconclusive: 0.0065 µM [activator, full curve, poor fit]
COc1ccc(Cn2ccnc2SCC(=O)Nc2cccc(NC(C)=O)c2)cc1 | inconclusive: 18.3 µM [inhibitor, single point]
COc1cc(S(=O)(=O)n2nc(C)cc2C)ccc1Cl | inactive
Cc1ccc(-n2c3nc(=O)[nH]c(=O)c-3cc3cc([N+](=O)[O-])ccc32)cc1C | inconclusive: 23.1 µM [inhibitor, single point]
O=C(COC(=O)/C=C/c1ccc2ccccc2n1)NNC(=O)c1ccc([N+](=O)[O-])cc1 | inconclusive: 8.2 µM [activator, partial curve]
CCCCN(C(=O)CCCc1nc2ccccc2s1)c1c(N)n(CC(C)C)c(=O)[nH]c1=O | inactive
O=CN1CCN(C(=O)c2ccc(-c3nc4ccccc4s3)s2)CC1 | inconclusive: 2.31 µM [activator, partial curve]
COCC(=O)N(Cc1nc2sc(C)c(C)c2c(=O)[nH]1)C1CCCCC1 | inactive
CCOc1ccc(NC(=S)NCCN2CCN(Cc3ccccc3)CC2)cc1 | inconclusive: 18.3 µM [inhibitor, single point]
O/N=C/c1ccc(OCc2ccccc2)c(Br)c1 | inconclusive: 5.8 µM [activator, partial curve]
COc1ccccc1C(=O)N/C(=C\c1ccc(Br)cc1)C(=O)N1CCCC1 | inconclusive: 29.1 µM [inhibitor, single point]
CCC(CC)C(=O)Nc1ccc(C(=O)Nc2cc(C)on2)cc1 | inactive
CC(=O)c1c(N2CCN(c3ccc(F)cc3)CC2)nc(=S)n(Cc2ccccc2)c1C | inconclusive: 29.1 µM [inhibitor, single point]
O=C(COC(=O)CC(c1ccccc1)c1ccccc1)NCc1ccc(Cl)cc1 | active: 16.4 µM
Nn1cnnc1N/N=C/c1cccc(Cl)c1Cl | inactive
CC(C)Oc1ccc(/C(O)=C2/C(=O)C(=O)N(CCN3CCOCC3)C2c2ccccc2)cc1 (stereo unspecified) | inconclusive: 11.2 µM [activator, partial curve, poor fit]
COc1ccc(C(=O)C2CCCN(S(=O)(=O)c3cccnc3)C2)c(C)c1 (stereo unspecified) | inconclusive: 32.6 µM [inhibitor, partial curve, poor fit]
Cc1cc2cc(C)c3nnc(SCC(=O)Nc4ccc(S(=O)(=O)N5CCCCC5)cc4)n3c2cc1C | inconclusive: 32.6 µM [inhibitor, single point]
CCCCCc1ccc(S(=O)(=O)Nc2cc(C)ccn2)cc1 | active: 10.3 µM
Cc1ccc(CN2C3=NCCN3c3ccccc32)cc1 | inactive
CC(C)(C)c1ccc(C(=O)NCCC(=O)NNC(=O)COc2ccc(F)cc2)cc1 | inconclusive: 16.4 µM [activator, single point]
CC(NC(=S)Nc1cccc(F)c1)C(c1cccs1)N1CCOCC1 (stereo unspecified) | inactive
O=C(Nc1ccc2c(c1)nc1n2CCN(C2CCCCC2)C1)NC1CCCCC1 | inconclusive: 23.1 µM [activator, partial curve]
Cc1ccccc1C(=O)N1CCc2cc(-c3csc(NC(=O)CN4CCCC4)n3)ccc21 | inconclusive: 29.1 µM [inhibitor, single point]

SMILES | Potency
COc1ccc(CNC(=O)CCn2cccc2)cc1 | inconclusive: 20.6 µM [activator, single point]
O=C(Nc1ccccc1N1CCCC1)c1cccnc1 | inactive
C/C(=N\NC(=O)c1ccc(O)cc1)c1ccc2c(c1)Nc1ccccc1S2 | inconclusive: 32.6 µM [inhibitor, single point]
O=C(Nc1c(-c2ccccc2)nc2ccccn12)c1cccs1 | inactive
O=C(CCCc1ccccc1)N1CCc2ccccc21 | inconclusive: 5.17 µM [activator, partial curve]
O=C(CCCOc1ccc(Cl)cc1Cl)NCCCO | inconclusive: 18.4 µM [activator, partial curve, poor fit]
COc1ccc(/C=C2\SC(=O)N=C2N)cc1OC | inconclusive: 16.4 µM [activator, partial curve]
O=C(Nc1ccc(-c2nc3ccccc3[nH]2)cc1)C1CCCO1 (stereo unspecified) | inconclusive: 0.92 µM [activator, partial curve]
CC(C)NC(=O)c1ccc(C2SCC(=O)N2Cc2ccccc2)cc1 (stereo unspecified) | inactive
Cc1ccc([N+](=O)[O-])cc1-c1ccc(/C=C(\C#N)c2[nH]nc(N)c2C#N)o1 | inconclusive: 25.9 µM [inhibitor, single point]
CC(=O)Nc1ccc(NC(=O)CCn2nnc3ccccc32)cc1 | inconclusive: 29.1 µM [inhibitor, single point]
O=C(Nc1ccccc1Cl)c1ccccc1Cc1ccccc1 | inconclusive: 13 µM [activator, partial curve]
CC(C)CCn1c(CN(C)Cc2ccccc2)nc2c1c(=O)n(C)c(=O)n2C | active: 20.6 µM
CCOc1cc(C2NC(=O)N(C)C(C)=C2C(=O)OC)cc(Br)c1O (stereo unspecified) | inconclusive: 35.5 µM [inhibitor, single point]
COc1ccccc1NC(=O)COc1ccc(C(=O)NCC2CCCO2)cc1OC (stereo unspecified) | inconclusive: 3.26 µM [inhibitor, partial curve]
COc1ccc(C[C@H]2CN3C(=NC[C@@H]3C(C)C)N2CCNC(=O)c2ccc(C)c(Br)c2)cc1 | inactive
Cc1cc2nc(SCCN3CCOCC3)[nH]c2cc1C | inconclusive: 9.2 µM [activator, partial curve]
Cc1ccc(S(=O)(=O)CCC(=O)OCC(=O)NCC(=O)Nc2cccc(C)c2C)cc1 | inactive
Cc1ccc2cccc(NC3OC(=O)c4ccccc43)c2n1 (stereo unspecified) | inactive
Cc1ccc(C(=O)N/N=C\c2cccnc2)s1 | inconclusive: 29.1 µM [activator, single point]
c1ccc2[nH]c(SCc3ccc(-c4nnco4)cc3)nc2c1 | inconclusive: 7.31 µM [activator, partial curve]
O=C(C1CC1)N1CCc2cc(S(=O)(=O)NCc3ccccc3)ccc21 | inactive
CC(C)(C)c1ccc(C(=O)NCCC(=O)Nc2ccc3c(c2)OCCO3)cc1 | inconclusive: 23.1 µM [activator, partial curve]
